# Test results as given in the supplement of paper PMC8728848.
# The other results are listed elsewhere or left out.
# Columns and labels:
# Assay in all cases: glycan array binding signal (z-score within array); higher = stronger binding
# Conditions in all cases: glycan notation: IUPAC condensed, linker removed
# [1] = biological target: Neu5Ac(a2-3)Gal(b1-4)GlcNAc(b1-3)[Neu5Ac(a2-3)Gal(b1-4)GlcNAc(b1-6)]GalNAc
# Summary of the method: (§1)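 Arrays were curated from the Consortium for Functional Glycomics database, 3228 in total, and kept only where the protein sequence was available. Binding is expressed as a within-array Z-score. This score was averaged across arrays of the same protein sequence at different concentrations or buffers and across linkers, and negative values can be read as non-binding.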
# [2] = biological target: Neu5Ac(a2-3)Gal(b1-4)GlcNAc(b1-6)GalNAc
# Summary of the method: as §1
# [3] = biological target: Neu5Ac(a2-3)Gal(b1-4)GlcNAc(b1-6)[Gal(b1-3)]GalNAc
# Summary of the method: as §1
# [4] = biological target: Neu5Ac(a2-3)Gal(b1-4)GlcNAc(b1-6)[Neu5Ac(a2-3)Gal(b1-3)]GalNAc
# Summary of the method: as §1
# [5] = biological target: Neu5Ac(a2-3)Gal(b1-4)GlcNAc6S
# Summary of the method: as §1
# [6] = biological target: Neu5Ac(a2-3)Gal(b1-4)[Fuc(a1-3)]GlcNAc
# Summary of the method: as §1
# [7] = biological target: Neu5Ac(a2-3)Gal(b1-4)[Fuc(a1-3)]GlcNAc(b1-2)Man
# Summary of the method: as §1
# [8] = biological target: Neu5Ac(a2-3)Gal(b1-4)[Fuc(a1-3)]GlcNAc(b1-3)Gal
# Summary of the method: as §1
# [9] = biological target: Neu5Ac(a2-3)Gal(b1-4)[Fuc(a1-3)]GlcNAc(b1-3)Gal(b1-4)GlcNAc
# Summary of the method: as §1
# [10] = biological target: Neu5Ac(a2-3)Gal(b1-4)[Fuc(a1-3)]GlcNAc(b1-3)Gal(b1-4)[Fuc(a1-3)]GlcNAc(b1-3)Gal(b1-4)[Fuc(a1-3)]GlcNAc
# Summary of the method: as §1
# [11] = biological target: Neu5Ac(a2-3)Gal(b1-4)[Fuc(a1-3)]GlcNAc(b1-3)GalNAc
# Summary of the method: as §1
# [12] = biological target: Neu5Ac(a2-3)Gal(b1-4)[Fuc(a1-3)]GlcNAc(b1-6)[Gal(b1-3)]GalNAc
# Summary of the method: as §1
# [13] = biological target: Neu5Ac(a2-3)Gal(b1-4)[Fuc(a1-3)]GlcNAc(b1-6)[Neu5Ac(a2-3)Gal(b1-3)]GalNAc
# Summary of the method: as §1
# [14] = biological target: Neu5Ac(a2-3)Gal(b1-4)[Fuc(a1-3)]GlcNAc6S
# Summary of the method: as §1
# [15] = biological target: Neu5Ac(a2-3)Gal6S(b1-4)GlcNAc
# Summary of the method: as §1
# [16] = biological target: Neu5Ac(a2-3)Gal6S(b1-4)[Fuc(a1-3)]GlcNAc
# Summary of the method: as §1
# Neu5Ac(a2-3)GalNAc = biological target: Neu5Ac(a2-3)GalNAc
# Summary of the method: as §1
# [17] = biological target: Neu5Ac(a2-3)GalNAc(b1-4)GlcNAc
# Summary of the method: as §1
# [18] = biological target: Neu5Ac(a2-3)[GalNAc(b1-4)]Gal(b1-4)Glc
# Summary of the method: as §1
# [19] = biological target: Neu5Ac(a2-3)[GalNAc(b1-4)]Gal(b1-4)GlcNAc
# Summary of the method: as §1
# [20] = biological target: Neu5Ac(a2-3)[GalNAc(b1-4)]Gal(b1-4)GlcNAc(b1-3)GalNAc
# Summary of the method: as §1
# [21] = biological target: Neu5Ac(a2-3)[Neu5Ac(a2-6)]GalNAc
# Summary of the method: as §1
# Neu5Ac(a2-6)Gal = biological target: Neu5Ac(a2-6)Gal
# Summary of the method: as §1
# [22] = biological target: Neu5Ac(a2-6)Gal(b1-3)GlcNAc(b1-3)[Gal(b1-4)GlcNAc(b1-6)]Gal(b1-4)Glc
# Summary of the method: as §1
# Neu5Ac(a2-6)Gal(b1-4)Glc = biological target: Neu5Ac(a2-6)Gal(b1-4)Glc
# Summary of the method: as §1
# [23] = biological target: Neu5Ac(a2-6)Gal(b1-4)GlcNAc
# Summary of the method: as §1
# [24] = biological target: Neu5Ac(a2-6)Gal(b1-4)GlcNAc(b1-2)Man
# Summary of the method: as §1
# [25] = biological target: Neu5Ac(a2-6)Gal(b1-4)GlcNAc(b1-2)Man(a1-3)Man(b1-4)GlcNAc(b1-4)GlcNAc
# Summary of the method: as §1
# [26] = biological target: Neu5Ac(a2-6)Gal(b1-4)GlcNAc(b1-2)Man(a1-3)[Gal(b1-4)GlcNAc(b1-2)Man(a1-6)]Man(b1-4)GlcNAc(b1-4)GlcNAc
# Summary of the method: as §1
# [27] = biological target: Neu5Ac(a2-6)Gal(b1-4)GlcNAc(b1-2)Man(a1-3)[GlcNAc(b1-4)][Neu5Ac(a2-6)Gal(b1-4)GlcNAc(b1-2)Man(a1-6)]Man(b1-4)GlcNAc(b1-4)GlcNAc
# Summary of the method: as §1
binder,measurement,setting,value
"CcfD (Bacteroides fragilis), Q5L9G4 (protein) MKKQNSIYTLLIALLCFVSSCDYLGVSDQLAGGLQNTEQVFDNVSYTKRWYANVFAGIPDYSGINSVNVGAFKNPWTGMCDELVVGYGNSSKYNNSDRNAANMGFHRYGDCYKYIRQANIFLQKAHPIMTTGTQGDQLLEDELTQMKANVRFMRAFYHYLLFEQYGPIILVKDKIYNATEDQDVPRNTVDEVIEYIDSELTAVASELTQEPIFEDKDYRAWPTKGVALAVRAKLWLYAASPLLNGGYREALSVTNPDGTRLFPDYDAGKWEKALAACKDFIDYAEAGRYELYKEYKDDNGAVIDPDKSVYNLFQKYTHEIIWATANNDWGGMNGDAFDRRIAPRCEKNGLGSTGVTQELVDAFYMKDGFPVSATAYLPQSTLYQEEGYGTYKDQNDNFSKKYTNVTVSNRYLNREPRFYNTVFFNGRQWPVSCNQVLFYNGGNSGVQEGQATLTGYMLFKRFNRSVSLTNPGVASQFRPSIIFRLADFYLMYAEAANEVNPNDARVLKYLNLVRERAGLPDIETLNPAIRGNQELQRAAIQRERQIELATEGQRYFDVRRWMIADKNGEGRQNGYVHGMNVRGESNDKEDFNRIVEASQIVFNRKMYLYPMPDSEMRKTKNLVQNPGW",glycan array binding signal (z-score),[1],0.443
same,glycan array binding signal (z-score),[2],0.154
same,glycan array binding signal (z-score),[3],0.312
same,glycan array binding signal (z-score),[4],0.22
same,glycan array binding signal (z-score),[5],-0.443
same,glycan array binding signal (z-score),[6],-0.522
same,glycan array binding signal (z-score),[7],-0.818
same,glycan array binding signal (z-score),[8],0.036
same,glycan array binding signal (z-score),[9],-0.161
same,glycan array binding signal (z-score),[10],-1.11
same,glycan array binding signal (z-score),[11],1.11
same,glycan array binding signal (z-score),[12],-0.614
same,glycan array binding signal (z-score),[13],0.227
same,glycan array binding signal (z-score),[14],0.489
same,glycan array binding signal (z-score),[15],-0.01
same,glycan array binding signal (z-score),[16],-1.03
same,glycan array binding signal (z-score),Neu5Ac(a2-3)GalNAc,-0.148
same,glycan array binding signal (z-score),[17],-0.739
same,glycan array binding signal (z-score),[18],2.27
same,glycan array binding signal (z-score),[19],-0.988
same,glycan array binding signal (z-score),[20],0.036
same,glycan array binding signal (z-score),[21],-0.653
same,glycan array binding signal (z-score),Neu5Ac(a2-6)Gal,0.043
same,glycan array binding signal (z-score),[22],-0.555
same,glycan array binding signal (z-score),Neu5Ac(a2-6)Gal(b1-4)Glc,-0.729
same,glycan array binding signal (z-score),[23],-0.942
same,glycan array binding signal (z-score),[24],-0.522
same,glycan array binding signal (z-score),[25],-0.016
same,glycan array binding signal (z-score),[26],-0.942
same,glycan array binding signal (z-score),[27],0.128

# 2 entries from above, with tabs:
binder	measurement	setting	value
CcfD (Bacteroides fragilis), Q5L9G4 (protein) MKKQNSIYTLLIALLCFVSSCDYLGVSDQLAGGLQNTEQVFDNVSYTKRWYANVFAGIPDYSGINSVNVGAFKNPWTGMCDELVVGYGNSSKYNNSDRNAANMGFHRYGDCYKYIRQANIFLQKAHPIMTTGTQGDQLLEDELTQMKANVRFMRAFYHYLLFEQYGPIILVKDKIYNATEDQDVPRNTVDEVIEYIDSELTAVASELTQEPIFEDKDYRAWPTKGVALAVRAKLWLYAASPLLNGGYREALSVTNPDGTRLFPDYDAGKWEKALAACKDFIDYAEAGRYELYKEYKDDNGAVIDPDKSVYNLFQKYTHEIIWATANNDWGGMNGDAFDRRIAPRCEKNGLGSTGVTQELVDAFYMKDGFPVSATAYLPQSTLYQEEGYGTYKDQNDNFSKKYTNVTVSNRYLNREPRFYNTVFFNGRQWPVSCNQVLFYNGGNSGVQEGQATLTGYMLFKRFNRSVSLTNPGVASQFRPSIIFRLADFYLMYAEAANEVNPNDARVLKYLNLVRERAGLPDIETLNPAIRGNQELQRAAIQRERQIELATEGQRYFDVRRWMIADKNGEGRQNGYVHGMNVRGESNDKEDFNRIVEASQIVFNRKMYLYPMPDSEMRKTKNLVQNPGW	glycan array binding signal (z-score)	[21]	-0.653
same	glycan array binding signal (z-score)	Neu5Ac(a2-6)Gal	0.043
